This passage reports binding results from publication PMC4818453.

In this assay the target is T1, full-length GST-CASK (rat) (UniProt Q62915).
T1 sequence: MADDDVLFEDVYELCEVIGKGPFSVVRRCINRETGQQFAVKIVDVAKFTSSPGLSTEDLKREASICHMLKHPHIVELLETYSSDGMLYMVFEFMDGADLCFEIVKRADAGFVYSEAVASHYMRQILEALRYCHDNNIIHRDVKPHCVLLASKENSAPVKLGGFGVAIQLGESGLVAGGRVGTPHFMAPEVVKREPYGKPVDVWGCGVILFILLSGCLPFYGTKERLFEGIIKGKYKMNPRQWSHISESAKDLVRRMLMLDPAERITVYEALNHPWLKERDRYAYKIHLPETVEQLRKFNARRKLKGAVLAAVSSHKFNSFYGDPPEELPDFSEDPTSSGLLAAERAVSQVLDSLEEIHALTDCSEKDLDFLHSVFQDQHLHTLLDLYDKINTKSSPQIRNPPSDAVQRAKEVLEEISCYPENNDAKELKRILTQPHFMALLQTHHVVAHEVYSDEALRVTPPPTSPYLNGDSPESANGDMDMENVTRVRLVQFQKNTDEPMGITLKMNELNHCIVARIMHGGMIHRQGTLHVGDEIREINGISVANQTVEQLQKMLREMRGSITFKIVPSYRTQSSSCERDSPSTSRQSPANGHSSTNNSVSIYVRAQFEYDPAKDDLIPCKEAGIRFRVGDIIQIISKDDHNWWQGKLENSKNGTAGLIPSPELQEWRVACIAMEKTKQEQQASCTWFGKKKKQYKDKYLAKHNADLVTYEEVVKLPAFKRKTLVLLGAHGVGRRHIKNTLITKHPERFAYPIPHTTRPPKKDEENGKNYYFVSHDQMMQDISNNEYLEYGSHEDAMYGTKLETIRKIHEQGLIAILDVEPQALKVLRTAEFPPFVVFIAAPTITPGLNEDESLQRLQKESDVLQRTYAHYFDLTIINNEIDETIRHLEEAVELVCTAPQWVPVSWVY
The assay is described as follows: pull-down; full-length GST-CASK or GST immobilised on glutathione resin; rat brain homogenate; bound proteins detected by immunoblot; only the target purified.

Results are given in words; binding and its absence hold for the method and conditions named. In cells and extracts the contact can be indirect. Binding can be weak; no strength is given. Sequences can lack the tags named with a protein.

For isocitrate dehydrogenase (IDH), the binding result was “binds”.
